# Results deposited as PubChem BioAssay AID1159584 (Peter MacCallum Cancer Centre, 2016)
# Aim: 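Knock-downs that harm CDH1-null cells more than parental MCF10A cells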 (primary screen)
# Cell system: human MCF10A breast epithelial cells, parental and CDH1-null
# Reagents: siRNA against human genes
# Read-out: 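Cell viability by CellTiter-Glo ATP luminescence, each line scaled to the mean of mock wells across plates, then CDH1-null over parental ratio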
# Direction: CDH1-null / parental viability ratio: higher = CDH1-null cells survive relatively better than parental; CDH1-null viability vs mock: higher = more viable CDH1-null cells; parental viability vs mock: higher = more viable parental cells
# Here is one part, drawn at random, of about 18,000 reagents tested. Not given: the amount of reagent, the time to read-out.
CDH1-null / parental viability ratio,CDH1-null viability vs mock (fraction of mock),parental viability vs mock (fraction of mock),target
0.9,0.52,0.58,STAC
1.03,0.92,0.89,OR4X2
0.94,0.79,0.84,DENND5A
1.21,1.19,0.98,RASSF10
0.9,0.61,0.68,RNPEP
1.01,0.78,0.77,GCNT4
0.86,0.96,1.12,CALCRL
1.11,0.78,0.7,FOXM1
0.8,0.78,0.98,GOLGA6B
1.15,1.08,0.94,SHMT1
1.16,0.94,0.81,SLC66A1
1.07,1.09,1.02,TIGAR
1.15,0.94,0.82,MEST
0.92,0.57,0.62,CD200
1.22,1.17,0.96,LTB
1.07,0.92,0.86,RANBP6
1.29,0.84,0.65,DNAJA3
1.31,0.42,0.32,LINC00174
0.76,0.62,0.82,SPRED2
0.78,0.84,1.08,SGTB
1.11,0.98,0.88,GALE
1.42,0.75,0.53,COQ3
1.18,0.67,0.57,PPCDC
1.06,0.51,0.48,SNW1
0.94,1.05,1.12,CEP128
1.04,1.04,1,TMEM126A
1.08,1,0.93,STK24
0.88,0.64,0.73,TEX26
0.92,0.66,0.72,SLC66A3
0.96,0.96,1,GALNT10
0.75,0.4,0.53,RHOV
0.98,0.58,0.59,TIRAP
0.9,0.81,0.9,OR6K3
1.1,0.9,0.82,RAD52
1.32,0.5,0.38,U2AF2
0.85,0.72,0.85,SCGB3A2
0.87,0.78,0.9,MC4R
1.07,1.12,1.05,KANSL1L
0.81,0.69,0.85,KNG1
1.11,1.08,0.97,PBK
1,0.92,0.92,ODF2L
1,0.98,0.98,IFRD2
1.07,0.32,0.3,FANK1
1.6,0.85,0.53,NCKAP5L
1.52,0.7,0.46,CNOT3
1.5,0.78,0.52,ARID3B
1.17,1.04,0.89,LRRN3
1.23,1.13,0.92,ZNF143
0.88,0.9,1.02,PARPBP
1,0.4,0.4,POLR2J3
1.09,1,0.92,ZNF629
1.27,0.81,0.64,ABCC4
0.93,0.78,0.84,LYN
1.57,0.94,0.6,UMOD
1.01,1.06,1.05,PUSL1
0.79,0.52,0.66,CTR9
1.09,1.09,1,PRAMEF10
1.18,0.66,0.56,NDUFAF3
1.1,0.78,0.71,CABCOCO1
0.85,0.74,0.87,CMTM3
1.15,1.06,0.92,CT47A2
1.18,0.8,0.68,ADAMDEC1
1.04,1.04,1,BRCA1
1.13,0.98,0.87,MS4A3
0.62,0.39,0.63,CD226
0.98,0.61,0.62,C9orf40
0.58,0.64,1.1,EFCAB13
0.84,0.96,1.14,CCDC70
0.7,0.5,0.71,SPI1
0.87,0.76,0.87,WAPL
1.32,0.82,0.62,HPF1
1.17,0.82,0.7,UBE3B
0.68,0.54,0.79,NDUFB7
0.84,0.64,0.76,EID1
0.94,0.81,0.86,POGLUT3
1.14,1.07,0.94,KLHL7
0.64,0.46,0.72,MPC2
1.12,0.93,0.83,SOX15
0.93,0.56,0.6,ARL8A
0.89,1.04,1.17,NCAM2
0.59,0.46,0.78,CT45A6
1.11,1,0.9,CUL4A
1.08,0.8,0.74,TMEM154
1.03,0.96,0.93,SOCS1
1.04,0.77,0.74,GTF2H5
1.12,1.17,1.04,ZMYND19
1.03,0.76,0.74,GPD1
